Like-named read-outs stand apart in the source and are kept apart here. These are yes or no findings as the source states them, for the method shown. Binding seen in cells or lysates may run through a third protein. A yes stands for co-enrichment or nearness to the bait. Other partners may have been found.
T1: Enp1-TAP (S. cerevisiae) (UniProt P38333)
T1 sequence: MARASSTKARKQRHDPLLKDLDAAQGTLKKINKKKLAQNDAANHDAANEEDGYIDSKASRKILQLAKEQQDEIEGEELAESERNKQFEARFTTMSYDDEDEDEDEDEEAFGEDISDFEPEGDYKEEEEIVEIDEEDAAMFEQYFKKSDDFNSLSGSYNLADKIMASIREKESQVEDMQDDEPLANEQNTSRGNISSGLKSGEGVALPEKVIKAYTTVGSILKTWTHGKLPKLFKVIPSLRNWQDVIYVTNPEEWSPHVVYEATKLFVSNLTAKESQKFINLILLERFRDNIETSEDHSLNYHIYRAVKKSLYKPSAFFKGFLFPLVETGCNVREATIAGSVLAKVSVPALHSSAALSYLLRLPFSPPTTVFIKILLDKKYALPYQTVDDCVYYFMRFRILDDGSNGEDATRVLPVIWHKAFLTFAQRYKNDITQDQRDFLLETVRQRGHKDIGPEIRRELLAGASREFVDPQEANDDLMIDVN

Amino acid sequences for entries named in this document (tags omitted).
UniProt P40160: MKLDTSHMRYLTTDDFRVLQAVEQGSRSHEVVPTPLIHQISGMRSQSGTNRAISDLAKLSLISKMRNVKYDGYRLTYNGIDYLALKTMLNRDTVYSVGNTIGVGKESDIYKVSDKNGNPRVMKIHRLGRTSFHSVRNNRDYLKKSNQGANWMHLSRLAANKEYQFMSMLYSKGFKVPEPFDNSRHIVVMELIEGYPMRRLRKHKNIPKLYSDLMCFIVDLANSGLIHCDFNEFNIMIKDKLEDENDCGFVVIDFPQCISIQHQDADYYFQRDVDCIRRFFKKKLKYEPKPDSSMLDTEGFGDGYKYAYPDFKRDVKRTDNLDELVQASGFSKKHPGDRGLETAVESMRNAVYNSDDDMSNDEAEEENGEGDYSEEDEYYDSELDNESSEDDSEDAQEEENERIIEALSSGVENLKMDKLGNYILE

B1: Tsr1 (protein, UniProt Q07381 1-788)
chain: MAGHSHRSSLKNGHKSYKSKHASKGALKRLYKGKVEKEPVGTGKPDKQVSKLQRKNKAKQLRAQRILDSIENRKLFEGKNGAAKIITIVPLVNDLDPLDILYKLLKCADDEGIMVQEVDSKRIFNVHIKKFKSNLKIIIPDMTNFLNILDCAKVADFVVFGLSGVQEVDEEFGEQIIRALELQGIASYIGVISNLSAVHEKEKFQLDVKQSLESYFKHFFPSEERVYNLEKNSDALNVLRTLCQRLPRSINWRDNRGYVVADFVDFVETSPDSGDLVIEGTVRGIGFNANRLVHIPDFGDFQLNKIEKISESSQKRKIIKEKATDSLSLELDLQTVFESNMNRDTLDEYAPEGTEDWSDYDEDFEYDGLTTARYDDHGFLPGREQTSKKAAVPKGTSDYQAKWYLDDVIDANEEEEAEQTNGKDETMMEIDDEMMVEQDNEEVAGDEEYDIEDNEGFEELSPEEEERQLREFRDMEKEDREFPDEIELEPSESAIERLKRYRGLKNLYNCDWQVDEKDPSSPAEWKRLLRIGNYKNTKNRIIKETKNEAQAIAGDRIRMFIRFPKFLLEKIQDPKQLLFAVYGLLLHEHKNAVVNFSLQRWEQYDKPVPSQEPIVVQYGVRRYTIQPLFSQGSNSPNNVHKYERFLHPDTVSVATCIAPVDFTQSPAIFFKPSPTDAKNIELIGHGTFLNADHSRILAKRAILTGHPFRFHKTVVTVRYMFFRPEDVEWFKSIPLFTKSGRSGFIKESLGTHGYFKATFDGKLSAQDVVAMSLYKRMWPMPSLPWNGM
B2: Nob1 (protein, UniProt Q08444 1-459)
chain: MTENQTAHVRALILDATPLITQSYTHYQNYAQSFYTTPTVFQEIKDAQARKNLEIWQSLGTLKLVHPSENSIAKVSTFAKLTGDYSVLSANDLHILALTYELEIKLNNGDWRLRKKPGDALDASKADVGTDGKQKLTEDNKKEEDSESVPKKKNKRRGGKKQKAKREAREAREAENANLELESKAEEHVEEAGSKEQICNDENIKESSDLNEVFEDADDDGDWITPENLTEAIIKDSGEDTTGSLGVEASEEDRHVALNRPENQVALATGDFAVQNVALQMNLNLMNFMSGLKIKRIRNYMLRCHACFKIFPLPKDGKPKHFCASCGGQGTLLRCAVSVDSRTGNVTPHLKSNFQWNNRGNRYSVASPLSKNSQKRYGKKGHVHSKPQENVILREDQKEYEKVIKQEEWTRRHNEKILNNWIGGGSADNYISPFAITGLKQHNVRIGKGRYVNSSKRRS

Columns and labels:
Enp1-TAP (S. cerevisiae) [1] = molecular target: T1, Enp1-TAP (S. cerevisiae); assay: affinity purification with mass spectrometry; Enp1-TAP captured from yeast extract on rabbit IgG Dynabeads, TEV elution, pre-ribosomal particles pelleted through a sucrose cushion; excised gel bands and the whole sample by LC-MS/MS; cells with Bud23 (AJY2665) or depleted of Bud23-AID (AJY4395, 0.5 mM auxin, 2 hours); 50 mM Tris-HCl pH 7.6, 100 mM KCl, 5 mM MgCl2, 0.1% TritonX-100, 4°C
Enp1-TAP (S. cerevisiae) [2] = molecular target: T1, Enp1-TAP (S. cerevisiae); assay: as above; remark: listed apart in the source

Molecule	binding (Enp1-TAP (S. cerevisiae) [1])	binding (Enp1-TAP (S. cerevisiae) [2])
Rio2 (from UniProt P40160 1-425)	binds	–
B1	–	binds
B2	–	binds

From article PMC7758049
